According to PubChem BioAssay AID504847 (National Center for Advancing Translational Sciences (NCATS), 2011):
Screen size: about 400,000 compounds; about 3,700 (0.93%) were called active. The inconclusive results got no clear call from the source; some entries with a clear call stand among them for comparison. Calls come from the whole dose curve; as a rule, active = well fitted inhibition curve with a large enough effect; inconclusive = small, poorly fitted or top-dose-only effect, or another doubt; inactive = no such curve, though single readings can be large or run the other way. Potencies beside an inconclusive call are fits to weak or partial responses and may not hold up.

Chains of the proteins cited; added tags and fusions are not shown. Lines headed by an entry give the natural chain unless they say otherwise; changes in a name come on top.
UniProt P11473: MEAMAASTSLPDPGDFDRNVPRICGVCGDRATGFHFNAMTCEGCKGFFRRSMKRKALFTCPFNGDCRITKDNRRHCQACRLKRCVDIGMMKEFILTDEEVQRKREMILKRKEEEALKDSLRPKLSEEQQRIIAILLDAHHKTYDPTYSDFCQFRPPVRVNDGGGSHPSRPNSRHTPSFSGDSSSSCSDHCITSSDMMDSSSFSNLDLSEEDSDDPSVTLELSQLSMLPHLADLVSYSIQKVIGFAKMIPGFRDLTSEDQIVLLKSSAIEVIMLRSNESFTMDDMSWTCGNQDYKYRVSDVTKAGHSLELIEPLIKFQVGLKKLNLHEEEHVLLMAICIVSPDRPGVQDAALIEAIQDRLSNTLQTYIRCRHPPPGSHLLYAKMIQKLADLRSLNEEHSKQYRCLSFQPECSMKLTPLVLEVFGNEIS

These molecules were tested against Vitamin D3 receptor (Homo sapiens) (UniProt P11473) (assay: Inhibitors of the vitamin D receptor (VDR): qHTS). Conditions: VDR-SRC2-3 peptide fluorescence polarization, 2 h; max response, negative = inhibition: stronger effect = lower value.
In short: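 FP read-out; VDR + SRC2-3 coactivator peptide; 23 nl compound by pintool; 2 h RT incubation; reagents held at 4 deg C, protected from light.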
% is set by controls: 0 for no effect and ±100 for the full control effect; potency is the fitted concentration of half-maximal effect.

Potency, inconclusive:
COc1ccc(OC)c(NC(=O)c2ccc(OC3CSC3)cc2)c1 70.8 µM [inhibitor, single point]
Cc1ccc(N2C(=O)c3[nH]nc(-c4ccc(Cl)cc4)c3C2c2ccc(F)cc2)cc1 (stereo not given) 100 µM [inhibitor, single point]
Cc1ccc(NCCC(=O)c2cccs2)cc1C 70.8 µM [inhibitor, single point]
COc1ccc(C(C)=NNc2ccc([N+](=O)[O-])cc2S(=O)(=O)Nc2ccccc2C(=O)O)c(OC)c1 89.1 µM [inhibitor, single point]
Cc1cccc(C)c1-n1cccc1/C=C1\SC(=S)N(c2cccc(C(=O)O)c2)C1=O 89.1 µM [inhibitor, single point]
Cc1cnc(C(=O)Nc2ccc(C)c(S(=O)(=O)N(C)C)c2)cn1 89.1 µM [inhibitor, single point]
O=C(Cn1c2ccccc2c(=O)c2ccccc21)Nc1cccc(F)c1 39.8 µM [inhibitor, single point]
CCCCCc1nnc(NC(=O)CN2C(=O)C3CCCCC3C2=O)s1 (stereo not given) 56.2 µM [inhibitor, partial curve, poor fit]
COCCn1c(=O)c(-c2ccc(Cl)cc2)nc2cnc(N3CCNCC3)nc21 89.1 µM [inhibitor, partial curve, poor fit]
O=c1cc(CO)oc(C(Nc2ccccn2)c2ccccc2F)c1O (stereo not given) 14.1 µM [inhibitor, full curve, poor fit]
NS(=O)(=O)c1ccc(-c2cccc(/C=C3\SC(=O)NC3=O)c2)cc1 79.4 µM [inhibitor, partial curve, poor fit]
COc1ccc(OC)c(C2=NS(=O)(=O)N(C)C(C(=O)Nc3cccc(C(C)=O)c3)=C2)c1 25.1 µM [inhibitor, single point]
Cc1c(NC(=O)/C=C/c2cn(-c3ccccc3)nc2-c2ccc(F)cc2)c(=O)n(-c2ccccc2)n1C 35.5 µM [inhibitor, partial curve, poor fit]
CC(CCc1ccccc1)NC(=O)CCC1CCCC1 (stereo not given) 50.1 µM [inhibitor, partial curve, poor fit]
O=C1NC(=S)SC1=Cc1ccccc1Br 89.1 µM [inhibitor, single point]
CC(C)c1onc(-c2c(Cl)cccc2Cl)c1COc1ccc(/C=C/c2cccc(C(=O)O)c2)c(Cl)c1 50.1 µM [inhibitor, partial curve]
NC(=S)NNc1cccc(Cl)c1 56.2 µM [inhibitor, partial curve, poor fit]
Cc1cc(OC(C)C(=O)NCc2ccncc2)c2c(C)c(C)c(=O)oc2c1 (stereo not given) 31.6 µM [inhibitor, partial curve]
C=Cc1ccc(CN2CCCN(Cc3ccc(Cl)cc3)S2(=O)=O)cc1 79.4 µM [inhibitor, single point]
CC(C)OC(=O)CSc1nc2ncccc2[nH]1 31.6 µM [inhibitor, single point]
Cc1ccccc1Nc1c(-c2ccc(N3CCOCC3)cc2)nc2ncccn12 44.7 µM [inhibitor, partial curve, poor fit]
CN1CCN(c2ncncc2-c2ccoc2)CC1 50.1 µM [inhibitor, partial curve]
CCOC(=O)C1(C)/C(=N/Nc2ccccc2)C(=O)C(=O)N1c1ccccc1 (stereo not given) 70.8 µM [inhibitor, partial curve]
COC(=O)c1ccc(/C=C(\C#N)C(=O)NC(C)c2ccccc2)cc1 (stereo not given) 25.1 µM [inhibitor, full curve, poor fit]
Cc1cccc(C)c1NC(=O)C1CCCN1S(=O)(=O)c1ccc(-c2ccc(=O)[nH]n2)s1 (stereo not given) 35.5 µM [inhibitor, single point]
CCOc1ccccc1N1CCN(C(=O)c2ccc(-c3ccc(OC(C)=O)cc3)cc2)CC1 63.1 µM [inhibitor, partial curve, poor fit]
COc1ccc(OCC(=O)Nc2ccc3c(c2)nc(CCN2CCN(C)CC2)n3C)cc1 39.8 µM [inhibitor, single point]
Cc1ccc(N2CCN(C(=S)c3ccc(N(C)C)cc3)CC2)cc1 79.4 µM [inhibitor, partial curve]
CCOc1ccc(/C=N/NC(=O)c2cc3c(OC)cccc3[nH]2)cc1 1.58 µM [inhibitor, partial curve, poor fit]
COc1ccccc1C1=NNC(=Nc2cccc(S(=O)(=O)N(C)C)c2)SC1 79.4 µM [inhibitor, partial curve, poor fit]
CCCn1c(C(C)Nc2nc(-c3ccc(C)cc3)cs2)nc2cc(Cl)c(N3CCCCC3)cc21 (stereo not given) 2 µM [inhibitor, full curve, poor fit]
CC(C)Cc1ccc(C(C)/C=C2/CCC(CN3CCCCC3)C2=O)cc1 (stereo not given) 28.2 µM [inhibitor, full curve, poor fit]
CCOC(=O)C1=C(C)N=c2s/c(=C\c3cc(OC)c(OC)c(OC)c3)c(=O)n2C1/C=C/c1ccccc1 (stereo not given) 79.4 µM [inhibitor, partial curve]
COc1cccc2cc(C(=O)Nc3ccc(S(=O)(=O)NCC4CCCO4)cc3)c(=O)oc12 (stereo not given) 70.8 µM [inhibitor, partial curve, poor fit]
O=C1c2cccc3c([N+](=O)[O-])c(O)cc(c23)C(=O)N1Nc1ccccc1 89.1 µM [inhibitor, partial curve, poor fit]
C/C(=N\NC(=O)c1nn(C)cc1Br)c1cccc(NC(=O)c2ccncc2)c1 7.94 µM [inhibitor, full curve]
O=C(NNc1ccccc1C(F)(F)F)c1sccc1Br 79.4 µM [inhibitor, partial curve]
Cc1ccc2c(c1)CCCN2C(=O)Nc1ccc2c(c1)OCO2 39.8 µM [inhibitor, full curve, poor fit]
Cc1cc(C)cc(NC(=O)C2CCN(C(=O)[C@@H]3Cc4ccccc4CN3)CC2)c1 39.8 µM [inhibitor, partial curve, poor fit]
CC(=O)C(C(C)=O)c1c(Cl)c(O)c(O)c2c(C(=O)c3ccccc3)coc12 7.94 µM [inhibitor, full curve, poor fit]
CCOc1ccc(C(=O)Nc2ccccc2C(=O)O)cc1 89.1 µM [inhibitor, single point]
COc1cc(C(=S)N2CCCC2)cc(Cl)c1OCC(=O)Nc1ccc(C)cc1C 79.4 µM [inhibitor, single point]
Cc1cc(N2O[C@]34C=C[C@]25C[C@@H](O)CC[C@]5(C)C3CC[C@]2(C)[C@@H]([C@H](C)/C=C/[C@H](C)C(C)C)CC[C@H]24)no1 (stereo not given in full) 89.1 µM [inhibitor, single point]

Random excerpt: 3 entries already listed.
Potency, inconclusive:
COC(=O)c1ccc(/C=C(\C#N)C(=O)NC(C)c2ccccc2)cc1 (stereo not given) 25.1 µM [inhibitor, full curve, poor fit]
CCOc1ccccc1N1CCN(C(=O)c2ccc(-c3ccc(OC(C)=O)cc3)cc2)CC1 63.1 µM [inhibitor, partial curve, poor fit]
C=Cc1ccc(CN2CCCN(Cc3ccc(Cl)cc3)S2(=O)=O)cc1 79.4 µM [inhibitor, single point]

Next part.

Potency, active:
O=C1CCC(C(=O)Nc2cccc(S(=O)(=O)Nc3ccccc3F)c2)=NN1 25.1 µM
O=C(CCN1CCCCC1)c1ccc2c(c1)OCO2 44.7 µM
O=c1c2ccccc2sn1-c1ccccc1 3.98 µM
CCOC(=O)c1c(N)sc(N)c1C(=O)OCC 8.91 µM
CCOC(=O)C(=Cc1ccc(-n2cncn2)cc1)C(=O)OCC 15.8 µM
COc1ccccc1/C=C/C(=O)c1ccccc1 79.4 µM
Cc1cc2cc(C=C(C#N)C#N)c(Cl)nc2cc1C 50.1 µM

Max response, negative = inhibition, inactive:
Cc1ccccc1OCCn1c(=S)[nH]c2ccccc21 -0.117%
COc1ccc(NC(=O)c2sc3nc(C)c(C(=O)Nc4ccc(Cl)cc4)c(-c4ccc(Br)cc4)c3c2N)cc1 -16.9%
CC1=C(C(=O)O)N2C(=O)C(NC(=O)c3ccccc3Cl)C2SC1 (stereo not given) -3.59%
Fc1ccc(CN2CCSCC2)cc1Br -3.31%
CN1CCN(C2=Nc3c(Cl)cc(Cl)c4cccc2c34)CC1 5.95%
COC(=O)c1cc(CC(=O)c2ccc(O)cc2O)c(C)o1 -1.02%
CC#CC(=O)N1CCCC(Cc2cccc(OC)c2)(C(=O)OCC)C1 (stereo not given) -10.1%
COCCNC(=O)C(=O)NCC(c1cccnc1)N1CCN(c2ccccc2F)CC1 (stereo not given) 8.08%
CCCCc1n[nH]c(=S)n1Cc1ccc(Cl)cc1 7.75%
CC12CCC(C[N+](C)(CCC[N+](C)(C)C)C1)C2(C)C (stereo not given) 4.01%
CN1CCN(c2ccc(Cl)cc2NC(=O)c2cc(=O)[nH]c3ccccc23)CC1 14.7%
CSc1ccc(CNC(=O)c2ccccc2NC(=O)c2nsc3ccccc23)cc1 -5.12%
COc1ccccc1/C=N/NC(=O)c1cc2c(OC)c(OC)ccc2[nH]1 5.07%
Cc1ccc(NC(=O)CSc2nc3c([nH]c4ccccc43)c(=O)n2-c2ccccc2)c(C)c1 3.26%
O=C(CN(Cc1cccs1)C(=O)CSc1nnc(COc2ccccc2)o1)NC1CCCC1 10.5%
